# Laboratory results published in patent publication US20100166659A1, “USE OF CYANINE DYES FOR THE DIAGNOSIS OF PROLIFERATIVE DISEASES” (priority 2005, published 2010).
# Some entries share one result that the patent states for a list of compounds.
# System: tumors
# Test: Tumor detection by optical imaging (DOT) with cyanine dye contrast agent
# Assay type: in vivo
smiles,measurement,setting,value
CC(/C=C/C=C1/N(CCS(=O)(=O)O)c2ccc(S(=O)(=O)[O-])cc2C1(C)C)=C\C=C\C1=[N+](CCS(=O)(=O)O)c2ccc(S(=O)(=O)O)cc2C1(C)C [Compound 5-36],Time after injection at which imaging of tumors is still possible,after injection,up to 48 h
same,Size (diameter) of smallest detectable tumors,at low concentration (very small amounts administered),≥ 3 mm
